# Results published in PMC2965674, “Functional Roles of the N- and C-Terminal Regions of the Human Mitochondrial Single-Stranded DNA-Binding Protein” (PLoS ONE, 2010).
# Target: T1, HsmtSSBwt (mature human mitochondrial SSB) (Homo sapiens) (UniProt Q04837)
# T1 sequence (looked up, limits assumed): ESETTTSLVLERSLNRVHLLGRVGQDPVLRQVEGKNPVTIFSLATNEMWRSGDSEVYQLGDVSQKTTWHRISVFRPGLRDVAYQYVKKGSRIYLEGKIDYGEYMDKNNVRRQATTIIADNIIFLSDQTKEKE
# Experiment: EMSA
# Conditions: no affinity difference, 20 mM Tris-HCl pH 7.5, 1 mM DTT, 4 mM MgCl2, 50 mM NaCl, 36 fmol 48-mer in 20 µL, 20°C 10 min, 6% native PAGE, recombinant protein, label: 5'-32P, single-stranded DNA
sequence,measurement,setting,value
GGACTATTTATTAAATATATTTAAGAACTAATTCCAGCTGAGCGCCGG [48-mer ssDNA oligonucleotide],binding result,20 mM NaCl,binds
same,binding result,100 mM NaCl,binds

# For at least one entry, the source does not settle the construct or the ends of the probe. At least one verdict rests on a figure or table, not on a statement of the authors. Tags and fusion partners may be left off the protein sequences shown.
